± gives the standard deviation of the averaged measurements. The entries are a selection whose mix differs from that of the whole data set.

Chains of the proteins cited; added tags and fusions are not shown. Lines headed by an entry give the natural chain unless they say otherwise; changes in a name come on top.
UniProt O15169, whole entry: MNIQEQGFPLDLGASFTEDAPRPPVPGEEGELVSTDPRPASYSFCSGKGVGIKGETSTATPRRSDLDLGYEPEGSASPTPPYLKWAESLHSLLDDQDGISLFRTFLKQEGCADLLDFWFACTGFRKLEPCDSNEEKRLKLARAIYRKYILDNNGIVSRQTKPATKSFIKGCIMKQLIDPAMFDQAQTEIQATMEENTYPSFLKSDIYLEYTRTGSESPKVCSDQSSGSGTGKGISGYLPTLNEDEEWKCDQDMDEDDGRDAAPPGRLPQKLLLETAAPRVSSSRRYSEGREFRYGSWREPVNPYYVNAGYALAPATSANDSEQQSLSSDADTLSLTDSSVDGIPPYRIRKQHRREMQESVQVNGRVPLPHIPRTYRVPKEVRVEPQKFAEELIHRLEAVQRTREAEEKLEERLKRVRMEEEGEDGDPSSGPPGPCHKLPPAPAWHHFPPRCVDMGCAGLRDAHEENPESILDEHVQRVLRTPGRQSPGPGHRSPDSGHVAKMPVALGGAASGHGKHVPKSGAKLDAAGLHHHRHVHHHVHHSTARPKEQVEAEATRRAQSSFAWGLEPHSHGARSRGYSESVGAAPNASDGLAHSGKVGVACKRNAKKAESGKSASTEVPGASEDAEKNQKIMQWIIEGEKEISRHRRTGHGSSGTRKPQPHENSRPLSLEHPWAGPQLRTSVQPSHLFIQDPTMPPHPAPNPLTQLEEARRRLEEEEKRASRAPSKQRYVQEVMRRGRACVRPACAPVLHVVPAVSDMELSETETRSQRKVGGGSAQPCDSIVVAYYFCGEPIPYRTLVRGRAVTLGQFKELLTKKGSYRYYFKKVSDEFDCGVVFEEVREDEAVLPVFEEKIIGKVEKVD
UniProt O00329: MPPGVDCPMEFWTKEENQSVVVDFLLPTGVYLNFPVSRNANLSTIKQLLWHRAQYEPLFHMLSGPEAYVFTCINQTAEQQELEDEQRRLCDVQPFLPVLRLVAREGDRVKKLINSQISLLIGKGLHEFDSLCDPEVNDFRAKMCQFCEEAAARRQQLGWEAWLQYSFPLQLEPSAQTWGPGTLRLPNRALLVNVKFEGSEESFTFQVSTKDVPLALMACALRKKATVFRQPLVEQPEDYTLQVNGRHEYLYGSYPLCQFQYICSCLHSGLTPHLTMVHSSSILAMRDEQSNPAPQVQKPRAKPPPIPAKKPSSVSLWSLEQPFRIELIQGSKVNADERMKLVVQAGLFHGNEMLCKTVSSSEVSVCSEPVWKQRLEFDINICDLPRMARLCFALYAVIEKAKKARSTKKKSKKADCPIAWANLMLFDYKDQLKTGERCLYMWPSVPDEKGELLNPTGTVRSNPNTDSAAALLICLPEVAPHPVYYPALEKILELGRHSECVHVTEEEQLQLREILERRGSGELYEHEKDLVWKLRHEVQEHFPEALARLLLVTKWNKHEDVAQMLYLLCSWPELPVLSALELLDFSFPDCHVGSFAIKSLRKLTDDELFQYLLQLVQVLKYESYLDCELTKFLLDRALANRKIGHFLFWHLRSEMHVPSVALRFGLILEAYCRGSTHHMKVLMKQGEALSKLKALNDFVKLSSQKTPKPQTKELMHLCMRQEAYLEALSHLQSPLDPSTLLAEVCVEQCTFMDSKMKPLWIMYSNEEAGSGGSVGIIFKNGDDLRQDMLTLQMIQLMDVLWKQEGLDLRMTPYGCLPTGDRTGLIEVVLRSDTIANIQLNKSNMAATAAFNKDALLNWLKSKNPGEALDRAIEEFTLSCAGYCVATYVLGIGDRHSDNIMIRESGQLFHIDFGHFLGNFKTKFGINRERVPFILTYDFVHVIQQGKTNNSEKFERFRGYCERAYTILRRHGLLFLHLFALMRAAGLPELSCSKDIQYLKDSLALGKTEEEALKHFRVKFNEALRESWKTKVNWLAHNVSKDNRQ
UniProt O00409: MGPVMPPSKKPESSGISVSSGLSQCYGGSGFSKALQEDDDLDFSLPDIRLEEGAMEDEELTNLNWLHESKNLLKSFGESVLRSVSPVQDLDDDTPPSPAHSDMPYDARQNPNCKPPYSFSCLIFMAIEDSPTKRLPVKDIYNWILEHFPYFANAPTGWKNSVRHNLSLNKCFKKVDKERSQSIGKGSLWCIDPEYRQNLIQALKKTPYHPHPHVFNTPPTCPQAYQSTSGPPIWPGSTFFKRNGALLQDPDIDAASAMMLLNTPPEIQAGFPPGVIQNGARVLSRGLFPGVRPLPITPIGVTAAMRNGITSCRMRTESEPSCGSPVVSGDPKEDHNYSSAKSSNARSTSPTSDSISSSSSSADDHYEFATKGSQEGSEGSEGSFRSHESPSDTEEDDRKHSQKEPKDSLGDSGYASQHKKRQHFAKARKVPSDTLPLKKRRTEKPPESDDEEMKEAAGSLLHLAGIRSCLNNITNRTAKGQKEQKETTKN
UniProt Q96DM3: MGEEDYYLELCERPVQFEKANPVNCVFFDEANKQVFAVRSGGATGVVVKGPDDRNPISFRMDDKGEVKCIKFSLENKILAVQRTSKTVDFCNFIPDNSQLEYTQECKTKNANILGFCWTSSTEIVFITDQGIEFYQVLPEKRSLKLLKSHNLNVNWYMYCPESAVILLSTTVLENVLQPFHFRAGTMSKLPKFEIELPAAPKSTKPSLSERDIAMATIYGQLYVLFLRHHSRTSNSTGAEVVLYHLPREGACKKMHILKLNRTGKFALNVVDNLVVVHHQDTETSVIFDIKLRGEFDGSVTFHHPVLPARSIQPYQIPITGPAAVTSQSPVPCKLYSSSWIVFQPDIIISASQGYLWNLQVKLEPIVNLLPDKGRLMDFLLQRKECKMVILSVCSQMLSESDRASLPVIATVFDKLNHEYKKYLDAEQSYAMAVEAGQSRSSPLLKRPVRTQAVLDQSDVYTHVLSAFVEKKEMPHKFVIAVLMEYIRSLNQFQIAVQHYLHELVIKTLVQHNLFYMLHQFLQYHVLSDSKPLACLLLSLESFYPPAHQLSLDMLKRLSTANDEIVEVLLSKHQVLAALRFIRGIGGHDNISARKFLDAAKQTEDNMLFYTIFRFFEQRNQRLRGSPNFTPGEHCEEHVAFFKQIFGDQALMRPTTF
UniProt Q96EP5: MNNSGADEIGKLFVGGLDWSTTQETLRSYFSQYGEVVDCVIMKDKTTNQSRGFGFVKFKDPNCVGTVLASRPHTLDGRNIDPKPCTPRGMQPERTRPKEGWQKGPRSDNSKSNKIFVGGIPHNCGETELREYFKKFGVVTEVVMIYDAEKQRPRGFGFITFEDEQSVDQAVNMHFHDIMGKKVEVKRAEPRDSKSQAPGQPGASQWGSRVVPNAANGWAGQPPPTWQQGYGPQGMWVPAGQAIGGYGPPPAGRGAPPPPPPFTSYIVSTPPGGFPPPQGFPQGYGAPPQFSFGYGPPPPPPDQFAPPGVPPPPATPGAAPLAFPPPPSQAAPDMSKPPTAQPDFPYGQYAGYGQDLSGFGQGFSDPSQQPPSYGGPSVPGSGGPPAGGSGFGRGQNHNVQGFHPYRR
UniProt O14976: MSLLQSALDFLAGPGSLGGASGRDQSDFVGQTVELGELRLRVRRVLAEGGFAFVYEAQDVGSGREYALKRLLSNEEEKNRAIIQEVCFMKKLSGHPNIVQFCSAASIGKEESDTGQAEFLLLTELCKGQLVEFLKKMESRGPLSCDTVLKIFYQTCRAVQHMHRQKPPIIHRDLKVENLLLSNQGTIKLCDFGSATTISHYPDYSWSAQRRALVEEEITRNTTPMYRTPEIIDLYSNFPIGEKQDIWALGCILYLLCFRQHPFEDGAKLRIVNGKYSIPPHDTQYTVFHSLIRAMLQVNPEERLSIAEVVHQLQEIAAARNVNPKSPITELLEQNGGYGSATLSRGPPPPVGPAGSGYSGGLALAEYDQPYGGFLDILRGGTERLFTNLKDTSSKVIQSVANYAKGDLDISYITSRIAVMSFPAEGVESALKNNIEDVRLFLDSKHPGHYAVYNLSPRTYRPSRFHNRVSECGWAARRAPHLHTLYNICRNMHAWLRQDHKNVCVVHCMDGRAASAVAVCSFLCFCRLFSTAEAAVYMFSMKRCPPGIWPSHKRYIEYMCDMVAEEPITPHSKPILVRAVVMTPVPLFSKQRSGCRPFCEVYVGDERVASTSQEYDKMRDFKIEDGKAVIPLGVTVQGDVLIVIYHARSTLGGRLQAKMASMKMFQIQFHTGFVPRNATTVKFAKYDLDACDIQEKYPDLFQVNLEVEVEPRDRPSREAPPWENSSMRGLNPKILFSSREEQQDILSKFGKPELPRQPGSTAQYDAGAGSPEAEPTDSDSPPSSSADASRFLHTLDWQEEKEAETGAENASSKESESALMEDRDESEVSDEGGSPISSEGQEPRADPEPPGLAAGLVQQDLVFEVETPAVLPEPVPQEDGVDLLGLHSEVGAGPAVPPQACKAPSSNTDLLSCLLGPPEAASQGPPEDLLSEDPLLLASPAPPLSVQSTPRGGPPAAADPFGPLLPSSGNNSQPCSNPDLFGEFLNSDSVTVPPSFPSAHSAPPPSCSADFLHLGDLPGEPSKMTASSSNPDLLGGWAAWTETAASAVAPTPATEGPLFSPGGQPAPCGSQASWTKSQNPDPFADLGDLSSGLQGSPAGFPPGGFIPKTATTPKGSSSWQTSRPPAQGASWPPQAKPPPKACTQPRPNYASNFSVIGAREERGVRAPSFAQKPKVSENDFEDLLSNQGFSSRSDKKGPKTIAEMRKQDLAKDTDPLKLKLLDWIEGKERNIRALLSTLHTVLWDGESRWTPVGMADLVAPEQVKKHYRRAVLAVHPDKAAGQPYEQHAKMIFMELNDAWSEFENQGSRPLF
UniProt O43566: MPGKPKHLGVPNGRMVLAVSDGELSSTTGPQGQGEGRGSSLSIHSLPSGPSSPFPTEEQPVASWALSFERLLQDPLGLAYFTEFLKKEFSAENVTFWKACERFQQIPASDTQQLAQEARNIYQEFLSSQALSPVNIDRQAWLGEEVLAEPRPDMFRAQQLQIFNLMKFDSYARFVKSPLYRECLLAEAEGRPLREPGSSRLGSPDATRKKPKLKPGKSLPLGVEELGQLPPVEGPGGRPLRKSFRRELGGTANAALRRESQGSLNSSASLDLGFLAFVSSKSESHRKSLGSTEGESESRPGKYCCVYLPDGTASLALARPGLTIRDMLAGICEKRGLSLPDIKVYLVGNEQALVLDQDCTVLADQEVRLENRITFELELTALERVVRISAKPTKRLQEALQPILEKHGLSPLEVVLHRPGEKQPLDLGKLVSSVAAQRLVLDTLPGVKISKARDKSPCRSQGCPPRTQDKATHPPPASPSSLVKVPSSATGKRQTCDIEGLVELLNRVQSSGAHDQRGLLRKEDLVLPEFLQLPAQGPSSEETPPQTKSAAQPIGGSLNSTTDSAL
UniProt O15037: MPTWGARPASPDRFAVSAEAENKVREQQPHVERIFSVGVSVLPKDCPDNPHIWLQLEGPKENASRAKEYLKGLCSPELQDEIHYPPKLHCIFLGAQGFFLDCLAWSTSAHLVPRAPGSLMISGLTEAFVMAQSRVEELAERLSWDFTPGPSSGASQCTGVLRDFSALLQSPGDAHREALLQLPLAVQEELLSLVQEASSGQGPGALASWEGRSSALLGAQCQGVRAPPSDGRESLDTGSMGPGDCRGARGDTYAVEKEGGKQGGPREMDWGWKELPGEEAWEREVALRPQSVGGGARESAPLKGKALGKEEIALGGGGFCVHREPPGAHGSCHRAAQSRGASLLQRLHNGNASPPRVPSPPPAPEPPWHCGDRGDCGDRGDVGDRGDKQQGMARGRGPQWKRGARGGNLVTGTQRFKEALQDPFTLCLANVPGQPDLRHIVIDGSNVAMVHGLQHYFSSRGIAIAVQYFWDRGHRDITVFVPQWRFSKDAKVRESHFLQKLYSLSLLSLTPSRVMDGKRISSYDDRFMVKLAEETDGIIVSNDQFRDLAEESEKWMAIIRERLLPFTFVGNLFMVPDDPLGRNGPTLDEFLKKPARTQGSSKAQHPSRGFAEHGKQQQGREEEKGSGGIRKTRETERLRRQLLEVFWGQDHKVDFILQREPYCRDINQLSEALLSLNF
UniProt O00330, whole entry: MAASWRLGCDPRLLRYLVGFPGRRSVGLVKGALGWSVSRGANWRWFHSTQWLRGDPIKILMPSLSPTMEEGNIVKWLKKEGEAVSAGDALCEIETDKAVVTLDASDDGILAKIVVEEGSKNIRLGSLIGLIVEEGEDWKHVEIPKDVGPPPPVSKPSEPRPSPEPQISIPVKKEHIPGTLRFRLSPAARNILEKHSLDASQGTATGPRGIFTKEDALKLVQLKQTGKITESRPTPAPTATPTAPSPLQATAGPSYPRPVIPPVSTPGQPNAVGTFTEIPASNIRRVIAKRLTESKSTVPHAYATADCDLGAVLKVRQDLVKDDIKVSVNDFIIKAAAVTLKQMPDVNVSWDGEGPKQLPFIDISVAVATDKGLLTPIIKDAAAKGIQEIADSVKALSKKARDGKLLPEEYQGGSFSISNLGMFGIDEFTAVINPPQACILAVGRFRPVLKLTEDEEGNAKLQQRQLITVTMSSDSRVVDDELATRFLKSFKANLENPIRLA

Compound in this experiment: Nc1ncnc2c1ncn2[C@@H]1O[C@H](COP(=O)(O)OP(=O)(O)NP(=O)(O)O)[C@@H](O)[C@H]1O [adenylyl imidodiphosphate]
As to the kind of experiment: NP40-soluble protein abundance relative to vehicle (solubility fold change) (ratio); higher = more soluble protein in presence of AMP-PNP. Summed up: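 Jurkat crude lysate (Dounce-homogenised) was treated with eight concentrations from 0.1 to 10 mM for 10 min at room temperature, then 3 min at 37 °C. It was solubilised with 0.8% NP40 and benzonase (60 min, 4 °C) and ultracentrifuged, and the supernatant was TMT-labelled for LC-MS/MS. Intensities were vsn-normalised, and the value is the fold change against the NP40-processed vehicle per replicate, from three independent experiments.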

As for UniProt O15169 and related entries, the NP40-soluble protein abundance is 1.05 ± 0.015 (concentration: 1mM); 1.047 ± 0.0037 (concentration: 2mM); 1.03 ± 0.0043 (concentration: 4mM); 1.038 ± 0.0093 (concentration: 6mM); 1.018 ± 0.0018 (concentration: 8mM); 1.032 ± 0.0081 (concentration: 10mM).
Take UniProt O14646 and related entries: the NP40-soluble protein abundance is, setting by setting: (concentration: 1mM) 1.07 ± 0.052; (concentration: 2mM) 1.15 ± 0.023; (concentration: 4mM) 1.23 ± 0.077; (concentration: 6mM) 1.33 ± 0.14; (concentration: 8mM) 1.41 ± 0.11; (concentration: 10mM) 1.49 ± 0.15.
Take “M0R2S1 and related entries (UniProt P62987)”: the NP40-soluble protein abundance was 0.966 ± 0.12 (concentration: 1mM); 0.954 ± 0.054 (concentration: 2mM); 0.912 ± 0.08 (concentration: 4mM); 0.959 ± 0.082 (concentration: 6mM); 0.948 ± 0.022 (concentration: 8mM); 0.94 ± 0.02 (concentration: 10mM).
As to PIK3CD (UniProt O00329), the NP40-soluble protein abundance is, setting by setting: (concentration: 1mM) 0.979 ± 0.039; (concentration: 2mM) 0.933 ± 0.042; (concentration: 4mM) 0.952 ± 0.031; (concentration: 6mM) 0.935 ± 0.019; (concentration: 8mM) 0.966 ± 0.012; (concentration: 10mM) 0.914 ± 0.03.
UniProt O00409 and related entries: the NP40-soluble protein abundance is, setting by setting: (concentration: 1mM) 0.996 ± 0.011; (concentration: 2mM) 1.0076 ± 0.0009; (concentration: 4mM) 1.01 ± 0.019; (concentration: 6mM) 0.999 ± 0.051; (concentration: 8mM) 1.01 ± 0.016; (concentration: 10mM) 1.02 ± 0.016.
Regarding “K7ENL9 and related entries (UniProt Q96DM3)”, the NP40-soluble protein abundance is 0.952 ± 0.013 (concentration: 1mM); 0.926 ± 0.08 (concentration: 2mM); 0.943 ± 0.02 (concentration: 4mM); 0.936 ± 0.032 (concentration: 6mM); 0.936 ± 0.016 (concentration: 8mM); 0.936 ± 0.042 (concentration: 10mM).
Consider “K7EK33 and related entries (UniProt Q96EP5)”, for which the NP40-soluble protein abundance (concentration: 1mM) was found to be 1.05 ± 0.027; the NP40-soluble protein abundance (concentration: 2mM) stood at 1.1 ± 0.055; the NP40-soluble protein abundance (concentration: 4mM) is 1.04 ± 0.041; the NP40-soluble protein abundance (concentration: 6mM) was found to be 1.021 ± 0.0074; the NP40-soluble protein abundance (concentration: 8mM) was 1.02 ± 0.034; the NP40-soluble protein abundance (concentration: 10mM) is 1.02 ± 0.054.
Turning to ARPC1B (UniProt O15143), the NP40-soluble protein abundance came to 0.985 ± 0.027 (concentration: 1mM); 0.96 ± 0.01 (concentration: 2mM); 0.964 ± 0.014 (concentration: 4mM); 0.988 ± 0.022 (concentration: 6mM); 0.974 ± 0.026 (concentration: 8mM); 0.951 ± 0.029 (concentration: 10mM).
For the target GAK (UniProt O14976), the NP40-soluble protein abundance worked out at 0.994 ± 0.015 (concentration: 1mM); 0.973 ± 0.043 (concentration: 2mM); 1.01 ± 0.037 (concentration: 4mM); 1 ± 0.031 (concentration: 6mM); 1.01 ± 0.037 (concentration: 8mM); 0.996 ± 0.043 (concentration: 10mM).
For UniProt O00410 and related entries, the NP40-soluble protein abundance runs as follows: (concentration: 1mM) 0.977 ± 0.019; (concentration: 2mM) 0.974 ± 0.025; (concentration: 4mM) 0.956 ± 0.043; (concentration: 6mM) 0.987 ± 0.048; (concentration: 8mM) 0.976 ± 0.055; (concentration: 10mM) 0.955 ± 0.059.
For UniProt O43566 and related entries, the NP40-soluble protein abundance (concentration: 1mM) worked out at 1.03 ± 0.055; the NP40-soluble protein abundance (concentration: 2mM) is 1.041 ± 0.0074; the NP40-soluble protein abundance (concentration: 4mM) is 1.02 ± 0.054; the NP40-soluble protein abundance (concentration: 6mM) was 1.03 ± 0.019; the NP40-soluble protein abundance (concentration: 8mM) was 1.04 ± 0.049; the NP40-soluble protein abundance (concentration: 10mM) came out at 1.02 ± 0.028.
Take ARPC3 (UniProt O15145): the NP40-soluble protein abundance runs as follows: (concentration: 1mM) 0.957 ± 0.032; (concentration: 2mM) 1.03 ± 0.03; (concentration: 4mM) 0.946 ± 0.057; (concentration: 6mM) 1.1 ± 0.17; (concentration: 8mM) 1.09 ± 0.11; (concentration: 10mM) 1.05 ± 0.06.
In the case of “K7EKE6 and related entries (UniProt P36776)”, the NP40-soluble protein abundance reads like this: (concentration: 1mM) 0.9487 ± 0.007; (concentration: 2mM) 0.907 ± 0.057; (concentration: 4mM) 0.94 ± 0.023; (concentration: 6mM) 0.925 ± 0.015; (concentration: 8mM) 0.92 ± 0.026; (concentration: 10mM) 0.913 ± 0.046.
Turning to UniProt O15037, the NP40-soluble protein abundance runs as follows: (concentration: 1mM) 1.01 ± 0.026; (concentration: 2mM) 1.01 ± 0.018; (concentration: 4mM) 1.01 ± 0.033; (concentration: 6mM) 0.981 ± 0.04; (concentration: 8mM) 0.942 ± 0.011; (concentration: 10mM) 0.972 ± 0.026.
Regarding HMGN4 (UniProt O00479), the NP40-soluble protein abundance is 1.024 ± 0.01 (concentration: 1mM); 1.01 ± 0.047 (concentration: 2mM); 1.04 ± 0.056 (concentration: 4mM); 1.1 ± 0.07 (concentration: 6mM); 1.08 ± 0.075 (concentration: 8mM); 1.22 ± 0.076 (concentration: 10mM).
UniProt O00330 and related entries: the NP40-soluble protein abundance by setting is: (concentration: 1mM) 0.958 ± 0.19; (concentration: 2mM) 0.941 ± 0.15; (concentration: 4mM) 0.877 ± 0.19; (concentration: 6mM) 0.916 ± 0.25; (concentration: 8mM) 0.867 ± 0.14; (concentration: 10mM) 0.916 ± 0.22.

(Values after the supplement of paper PMC6411743.)
